Values from PubChem BioAssay AID1159578 (Peter MacCallum Cancer Centre, 2015)

- Aim: 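Genome-wide hunt for genes controlling movement of lymphatic endothelial cells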 (primary screen)
- System: human lymphatic endothelial cells
- Reagent: siRNA pool against human genes, 40 nM
- Timing: 48 h after transfection
- Measured: 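High-content imaging of dye-stained cells in a scratch assay measures filled wound area and nuclei per well; duplicate means given as ratio to mock and robust z-score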
- Reading the numbers: migration robust z-score: higher = faster migration into the scratch; nuclei per well: higher = more cells in the well
- Hit rule: 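Migration changed when robust z exceeds 2 or falls below -2 and mean nuclei number is at least 3300; otherwise not called changed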
- Meaning of the calls: active = migration changed; inactive = no migration change, or too few cells
Here is a random part of about 18,000 reagents tested. Of all reagents, about 1,030 (5.7%) got an active call. 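Inactive calls also include pools with fewer than 3300 nuclei, whose migration was not assessed.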 Raw values are not corrected between plates. Entries without a mark were called inactive. Not all columns of the deposit are shown. No sequences are given here.

DDX49 showed migration robust z-score -1.12; migration class with cell-count check migration z between -2 and 2; enough cells; nuclei per well, duplicate mean 5158.
For TUBB3 the deposit lists migration robust z-score 0.48; migration class with cell-count check migration z between -2 and 2; enough cells; nuclei per well, duplicate mean 6413.
Depletion of GAB3 gave: migration robust z-score 0.77; migration class with cell-count check migration z between -2 and 2; enough cells; nuclei per well, duplicate mean 6074.
Silencing of TERF1 resulted in: migration robust z-score -0.57; migration class with cell-count check migration z between -2 and 2; enough cells; nuclei per well, duplicate mean 6574.
Depletion of WDR91 came out at: migration robust z-score -0.08; migration class with cell-count check migration z between -2 and 2; enough cells; nuclei per well, duplicate mean 6191.
For TNFSF12-TNFSF13, the values are migration robust z-score 0.67; migration class with cell-count check migration z between -2 and 2; enough cells; nuclei per well, duplicate mean 5702.
For OR5L2, the entry reads migration robust z-score -1.3; migration class with cell-count check migration z between -2 and 2; enough cells; nuclei per well, duplicate mean 4893.
SAPCD2 showed migration robust z-score -1.6; migration class with cell-count check migration z between -2 and 2; enough cells; nuclei per well, duplicate mean 6235.
CCDC34 gave migration robust z-score -0.76; migration class with cell-count check migration z between -2 and 2; enough cells; nuclei per well, duplicate mean 5420.
POLR1B gave migration robust z-score 0.74; migration class with cell-count check migration z between -2 and 2; enough cells; nuclei per well, duplicate mean 6335.
Knock-down of ADAMTS5 gave: migration robust z-score 0.05; migration class with cell-count check migration z between -2 and 2; enough cells; nuclei per well, duplicate mean 5348.
ATP8A2 showed migration robust z-score 0; migration class with cell-count check migration z between -2 and 2; enough cells; nuclei per well, duplicate mean 6242.
KLHL42 showed migration robust z-score -1.1; migration class with cell-count check migration z between -2 and 2; enough cells; nuclei per well, duplicate mean 5467.
Knock-down of DNMT3L came out at: migration robust z-score 0.2; migration class with cell-count check migration z between -2 and 2; enough cells; nuclei per well, duplicate mean 4098.
With knock-down of COG3, the record shows migration robust z-score -0.05; migration class with cell-count check migration z between -2 and 2; enough cells; nuclei per well, duplicate mean 6700.
Knock-down of ATG5 came out at: migration robust z-score -0.8; migration class with cell-count check migration z between -2 and 2; enough cells; nuclei per well, duplicate mean 5570.
With knock-down of TMEM92, the record shows migration robust z-score 0.2; migration class with cell-count check migration z between -2 and 2; enough cells; nuclei per well, duplicate mean 6341.
CCS scored migration robust z-score -2.64 (active); migration class with cell-count check migration z below -2; enough cells; nuclei per well, duplicate mean 3561.
Against MIP the deposit lists migration robust z-score 0.68; migration class with cell-count check migration z between -2 and 2; enough cells; nuclei per well, duplicate mean 6270.
CDS1 scored migration robust z-score -1.56; migration class with cell-count check migration z between -2 and 2; enough cells; nuclei per well, duplicate mean 5934.
For GHR, the values are migration robust z-score -0.46; migration class with cell-count check migration z between -2 and 2; enough cells; nuclei per well, duplicate mean 5892.
After knock-down of AHCYL1, the screen gave migration robust z-score -1.58; migration class with cell-count check migration z between -2 and 2; enough cells; nuclei per well, duplicate mean 4833.
With knock-down of TMEM260, the screen gave migration robust z-score 0.26; migration class with cell-count check migration z between -2 and 2; enough cells; nuclei per well, duplicate mean 5258.
After knock-down of AP2A2, the screen gave migration robust z-score -1.22; migration class with cell-count check migration z between -2 and 2; enough cells; nuclei per well, duplicate mean 5294.
Depletion of UBE2C came out at: migration robust z-score 1.87; migration class with cell-count check migration z between -2 and 2; enough cells; nuclei per well, duplicate mean 5220.
After knock-down of EIF1B, the record shows migration robust z-score 1.21; migration class with cell-count check migration z between -2 and 2; enough cells; nuclei per well, duplicate mean 6399.
RGL2 showed migration robust z-score 0.1; migration class with cell-count check migration z between -2 and 2; enough cells; nuclei per well, duplicate mean 5964.

Entries above whose target name starts with T or t (5):
TUBB3 → migration robust z-score: 0.48; migration class with cell-count check: migration z between -2 and 2; enough cells; nuclei per well, duplicate mean: 6413
TERF1 → migration robust z-score: -0.57; migration class with cell-count check: migration z between -2 and 2; enough cells; nuclei per well, duplicate mean: 6574
TNFSF12-TNFSF13 → migration robust z-score: 0.67; migration class with cell-count check: migration z between -2 and 2; enough cells; nuclei per well, duplicate mean: 5702
TMEM92 → migration robust z-score: 0.2; migration class with cell-count check: migration z between -2 and 2; enough cells; nuclei per well, duplicate mean: 6341
TMEM260 → migration robust z-score: 0.26; migration class with cell-count check: migration z between -2 and 2; enough cells; nuclei per well, duplicate mean: 5258
